Results deposited as PubChem BioAssay AID1259254 (NCATS, 2017)

- Test: 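Gene knock-downs that lead to re-replication, shown by excess G2 DNA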 (primary screen)
- Cell system: human HCT116 colorectal cancer cells
- Reagent: single siRNA against human genes
- Duration: 3 days
- Read-out: 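Nuclei stained with Hoechst and imaged; cell-cycle phase assigned by DNA content; G2 share scaled per plate, non-targeting siRNA 0%, GMNN siRNA 100%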
- Reading the numbers: G2 robust z-score and G2 cells, % of GMNN control: higher = more G2 cells, more excess DNA replication; raw share of cells in G2: higher = larger share of cells with G2 DNA content
- Active means: 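An siRNA counts as active if its G2 robust z-score lies at least 5 MADs above the screen median; here such calls match roughly 38% of GMNN control or more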
The deposit covers about 59,000 reagents; below is a random part of them. Of all reagents, about 1,550 (2.6%) were called active. 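G2 share is only a proxy for re-replication; each gene was hit by three separate siRNAs, and active genes were retested.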 Raw values vary from plate to plate and are shown uncorrected. A number with no mark means an inactive call. The numbers tell different reagents against one gene apart. Not stated in the record: the amount of reagent.

target gene,siRNA no.,G2 robust z-score,"G2 cells, % of GMNN control",raw share of cells in G2 (%)
PRSS58,1,-0.419,0.0184,4.27
PRSS58,2,1.12,10.8,10.2
PRSS58,3,0.129,3.88,5.75
CPLX3,1,-0.852,-3.03,2.27
CPLX3,2,1.99,17,8.9
CPLX3,3,1.44,13.1,8.69
DDX23,1,0.761,8.32,8.35
DDX23,2,2.63,21.5,13.5
DDX23,3,-0.176,1.73,3.79
UBQLN3,1,0.0738,3.49,5.19
UBQLN3,2,0.463,6.22,6.9
UBQLN3,3,-0.705,-1.99,2.62
SCAPER,1,2.59,21.2,12
SCAPER,2,0.375,5.61,6.67
SCAPER,3,-1.01,-4.16,1.94
PENK,1,0.247,4.7,6.97
PENK,2,-0.178,1.71,4.9
PENK,3,-0.438,-0.114,3.31
CEP250,1,0.132,3.9,6.51
CEP250,2,2.72,22.1,13.3
CEP250,3,1.42,13,8.03
SNRPE,1,3.68,28.8,15.4
SNRPE,2,3.07,24.6,13
SNRPE,3,0.794,8.55,6.79
DDOST,1,-0.551,-0.911,3.78
DDOST,2,1.95,16.7,11.1
DDOST,3,2.12,17.9,11.4
KRT40,1,-0.8,-2.66,3.47
KRT40,2,-0.985,-3.96,3.27
KRT40,3,-0.65,-1.6,4.93

Looked up above:
Under “G2 cells, % of GMNN control”, CEP250 #3 has 13
KRT40 #3, raw share of cells in G2 (%): 4.93
